Measured values taken from paper PMC6852768.
These are yes or no findings as the source states them, for the method shown. Binding seen in cells or lysates may run through a third protein. Some entries that bind do so weakly or less than the wild type. Where a sequence is shown, tags or fusion partners need not be part of it.

Sequences of proteins named here, by UniProt entry; tags and fusion partners are left off.
UniProt Q15811: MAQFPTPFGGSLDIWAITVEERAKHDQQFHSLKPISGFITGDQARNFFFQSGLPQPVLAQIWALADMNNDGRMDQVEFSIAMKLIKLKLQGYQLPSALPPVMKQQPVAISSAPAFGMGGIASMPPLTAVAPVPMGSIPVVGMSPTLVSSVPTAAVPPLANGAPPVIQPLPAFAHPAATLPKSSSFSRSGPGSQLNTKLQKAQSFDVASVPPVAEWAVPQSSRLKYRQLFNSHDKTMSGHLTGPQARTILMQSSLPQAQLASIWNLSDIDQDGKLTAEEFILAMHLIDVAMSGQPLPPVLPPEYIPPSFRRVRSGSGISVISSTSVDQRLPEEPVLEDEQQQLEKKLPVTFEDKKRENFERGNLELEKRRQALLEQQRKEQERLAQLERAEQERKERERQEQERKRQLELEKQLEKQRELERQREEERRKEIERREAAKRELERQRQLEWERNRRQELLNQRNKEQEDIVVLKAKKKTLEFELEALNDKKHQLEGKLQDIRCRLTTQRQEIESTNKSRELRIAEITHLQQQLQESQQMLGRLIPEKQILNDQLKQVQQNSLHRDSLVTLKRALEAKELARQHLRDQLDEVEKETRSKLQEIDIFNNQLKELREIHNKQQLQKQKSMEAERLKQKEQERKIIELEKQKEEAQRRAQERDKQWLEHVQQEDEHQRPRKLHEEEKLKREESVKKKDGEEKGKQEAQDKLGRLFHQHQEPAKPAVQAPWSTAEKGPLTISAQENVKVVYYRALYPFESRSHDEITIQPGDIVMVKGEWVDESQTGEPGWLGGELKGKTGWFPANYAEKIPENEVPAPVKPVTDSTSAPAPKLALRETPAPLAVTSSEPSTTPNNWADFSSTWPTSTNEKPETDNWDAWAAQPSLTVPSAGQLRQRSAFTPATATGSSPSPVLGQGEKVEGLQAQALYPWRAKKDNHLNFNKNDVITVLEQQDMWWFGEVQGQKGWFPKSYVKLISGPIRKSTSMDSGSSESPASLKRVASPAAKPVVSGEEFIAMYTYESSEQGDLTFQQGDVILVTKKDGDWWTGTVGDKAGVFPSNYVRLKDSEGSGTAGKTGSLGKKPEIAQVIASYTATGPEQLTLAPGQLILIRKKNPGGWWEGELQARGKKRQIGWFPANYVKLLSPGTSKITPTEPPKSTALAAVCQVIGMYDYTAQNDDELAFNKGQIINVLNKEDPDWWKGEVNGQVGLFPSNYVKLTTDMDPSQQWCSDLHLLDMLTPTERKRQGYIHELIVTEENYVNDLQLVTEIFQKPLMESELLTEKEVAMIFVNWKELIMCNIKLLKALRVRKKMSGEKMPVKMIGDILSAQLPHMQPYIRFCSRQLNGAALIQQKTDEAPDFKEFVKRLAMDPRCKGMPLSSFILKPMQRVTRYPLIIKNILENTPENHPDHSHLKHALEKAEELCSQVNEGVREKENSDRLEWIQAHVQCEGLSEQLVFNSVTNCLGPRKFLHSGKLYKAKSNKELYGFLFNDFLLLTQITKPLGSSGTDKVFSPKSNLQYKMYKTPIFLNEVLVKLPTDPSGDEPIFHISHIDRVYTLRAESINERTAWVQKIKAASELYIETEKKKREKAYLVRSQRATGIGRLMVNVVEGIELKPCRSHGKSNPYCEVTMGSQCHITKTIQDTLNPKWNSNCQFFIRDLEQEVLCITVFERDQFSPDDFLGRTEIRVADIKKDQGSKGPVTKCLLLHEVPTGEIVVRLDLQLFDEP

Target: T1, FLAG-tagged GAREM2 (Grb2-associated regulator of Erk/MAPK subtype 2) (human) (UniProt Q75VX8)
T1 sequence: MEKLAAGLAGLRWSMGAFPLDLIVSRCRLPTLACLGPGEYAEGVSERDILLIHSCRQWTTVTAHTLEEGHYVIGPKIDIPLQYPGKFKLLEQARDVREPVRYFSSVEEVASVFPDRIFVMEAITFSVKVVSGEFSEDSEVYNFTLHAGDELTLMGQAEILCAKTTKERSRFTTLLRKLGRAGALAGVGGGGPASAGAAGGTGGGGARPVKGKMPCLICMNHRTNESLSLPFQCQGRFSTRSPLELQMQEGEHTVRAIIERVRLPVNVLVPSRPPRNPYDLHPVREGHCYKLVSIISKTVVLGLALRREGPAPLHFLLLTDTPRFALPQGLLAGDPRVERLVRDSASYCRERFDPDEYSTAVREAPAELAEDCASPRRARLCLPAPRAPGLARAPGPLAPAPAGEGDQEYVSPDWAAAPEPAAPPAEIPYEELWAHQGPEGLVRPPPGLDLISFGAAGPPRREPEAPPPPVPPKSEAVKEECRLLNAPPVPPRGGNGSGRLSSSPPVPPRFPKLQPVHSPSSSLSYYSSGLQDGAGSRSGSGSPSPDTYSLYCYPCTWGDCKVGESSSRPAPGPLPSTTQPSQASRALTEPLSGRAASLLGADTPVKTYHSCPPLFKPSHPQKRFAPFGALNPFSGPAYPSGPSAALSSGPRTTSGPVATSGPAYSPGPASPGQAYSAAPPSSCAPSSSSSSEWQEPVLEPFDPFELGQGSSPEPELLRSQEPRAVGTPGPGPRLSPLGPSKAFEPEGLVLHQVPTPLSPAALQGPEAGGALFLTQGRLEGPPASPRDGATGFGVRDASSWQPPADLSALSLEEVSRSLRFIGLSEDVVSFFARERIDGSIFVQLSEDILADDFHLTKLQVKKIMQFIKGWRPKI
Test: co-IP; total cell lysate of SH-SY5Y cells stably expressing FLAG-GAREM2, precipitated with anti-FLAG affinity gel, 0-4 °C; lysis buffer 20 mM Tris-HCl pH 7.5, 1 mM EDTA, 10 mM DTT, 1% Triton X-100, 150 mM NaCl; immunoblot with anti-ITSN1, anti-ITSN2 and anti-FLAG

Substance: Intersectin 1 (from UniProt Q15811 1-1721)
- binding: binds
